This is an account of results in the supplement of paper PMC6411743.

Amino acid sequences for entries named in this document (tags omitted). A change or cut given only in a name is not applied to a line headed by its entry.
UniProt Q02218: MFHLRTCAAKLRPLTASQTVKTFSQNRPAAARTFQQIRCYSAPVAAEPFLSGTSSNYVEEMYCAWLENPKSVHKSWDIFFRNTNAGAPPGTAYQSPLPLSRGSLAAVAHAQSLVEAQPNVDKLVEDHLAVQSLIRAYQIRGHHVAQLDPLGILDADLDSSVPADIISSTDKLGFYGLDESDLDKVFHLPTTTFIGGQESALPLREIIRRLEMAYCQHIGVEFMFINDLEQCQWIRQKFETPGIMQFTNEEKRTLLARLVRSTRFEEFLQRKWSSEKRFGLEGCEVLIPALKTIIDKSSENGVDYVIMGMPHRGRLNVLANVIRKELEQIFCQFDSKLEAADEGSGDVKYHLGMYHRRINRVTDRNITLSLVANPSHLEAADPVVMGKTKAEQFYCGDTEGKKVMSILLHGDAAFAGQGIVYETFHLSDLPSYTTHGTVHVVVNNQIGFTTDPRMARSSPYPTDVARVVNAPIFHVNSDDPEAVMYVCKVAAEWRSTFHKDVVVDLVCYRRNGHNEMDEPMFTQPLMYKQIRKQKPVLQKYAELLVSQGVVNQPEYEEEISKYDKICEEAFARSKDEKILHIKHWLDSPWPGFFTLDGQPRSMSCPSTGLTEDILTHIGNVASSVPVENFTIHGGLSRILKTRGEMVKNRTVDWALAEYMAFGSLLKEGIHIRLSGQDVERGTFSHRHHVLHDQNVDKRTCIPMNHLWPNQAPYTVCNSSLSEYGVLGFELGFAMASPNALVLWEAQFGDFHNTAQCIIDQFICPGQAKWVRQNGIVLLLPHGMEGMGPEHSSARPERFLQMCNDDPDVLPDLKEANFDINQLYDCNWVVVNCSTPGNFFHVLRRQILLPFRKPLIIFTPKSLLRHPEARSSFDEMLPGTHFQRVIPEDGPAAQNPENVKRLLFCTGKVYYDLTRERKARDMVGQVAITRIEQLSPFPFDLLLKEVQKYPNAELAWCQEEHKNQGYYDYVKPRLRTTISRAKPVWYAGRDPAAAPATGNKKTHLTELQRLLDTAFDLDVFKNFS
UniProt Q96PN7: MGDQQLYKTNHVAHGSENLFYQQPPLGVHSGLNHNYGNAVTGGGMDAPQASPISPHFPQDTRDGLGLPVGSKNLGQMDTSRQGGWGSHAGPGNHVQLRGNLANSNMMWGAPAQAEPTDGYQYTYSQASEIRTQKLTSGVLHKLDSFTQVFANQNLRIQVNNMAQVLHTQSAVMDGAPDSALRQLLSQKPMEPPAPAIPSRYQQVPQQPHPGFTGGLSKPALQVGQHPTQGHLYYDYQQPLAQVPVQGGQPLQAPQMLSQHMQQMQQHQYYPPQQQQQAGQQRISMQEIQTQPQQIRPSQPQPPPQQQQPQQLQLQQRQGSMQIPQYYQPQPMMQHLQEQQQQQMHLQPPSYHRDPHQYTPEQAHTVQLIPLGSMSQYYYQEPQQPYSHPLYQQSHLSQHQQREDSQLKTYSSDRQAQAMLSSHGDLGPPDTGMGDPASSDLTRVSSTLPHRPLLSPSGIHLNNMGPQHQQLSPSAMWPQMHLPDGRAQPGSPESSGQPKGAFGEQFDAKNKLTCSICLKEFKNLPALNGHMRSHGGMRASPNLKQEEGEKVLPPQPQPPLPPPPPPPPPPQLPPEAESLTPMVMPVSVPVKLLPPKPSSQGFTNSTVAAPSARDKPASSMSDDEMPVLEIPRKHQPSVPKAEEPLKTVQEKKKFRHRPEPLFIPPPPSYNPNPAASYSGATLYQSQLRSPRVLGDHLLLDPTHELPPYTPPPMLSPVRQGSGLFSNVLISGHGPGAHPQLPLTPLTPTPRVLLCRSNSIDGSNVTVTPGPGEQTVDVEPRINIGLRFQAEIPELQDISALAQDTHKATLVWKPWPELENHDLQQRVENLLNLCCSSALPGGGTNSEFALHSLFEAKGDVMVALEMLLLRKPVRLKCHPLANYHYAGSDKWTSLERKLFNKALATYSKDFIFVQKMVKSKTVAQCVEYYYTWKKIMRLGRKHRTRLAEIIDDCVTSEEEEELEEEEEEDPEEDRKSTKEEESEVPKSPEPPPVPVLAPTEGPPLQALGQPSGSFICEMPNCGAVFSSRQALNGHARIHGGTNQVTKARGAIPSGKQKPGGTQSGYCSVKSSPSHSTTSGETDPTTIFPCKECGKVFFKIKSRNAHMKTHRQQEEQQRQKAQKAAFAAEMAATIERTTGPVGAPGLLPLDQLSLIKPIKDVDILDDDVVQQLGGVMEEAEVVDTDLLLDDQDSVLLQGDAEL
UniProt Q12846: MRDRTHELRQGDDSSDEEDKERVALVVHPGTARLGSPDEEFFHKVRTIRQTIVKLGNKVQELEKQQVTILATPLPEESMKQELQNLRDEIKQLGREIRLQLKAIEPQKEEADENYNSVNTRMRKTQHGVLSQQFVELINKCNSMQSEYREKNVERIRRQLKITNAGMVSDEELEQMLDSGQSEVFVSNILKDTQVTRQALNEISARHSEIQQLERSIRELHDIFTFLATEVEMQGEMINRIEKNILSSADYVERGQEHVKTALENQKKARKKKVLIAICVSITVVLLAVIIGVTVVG
UniProt Q04323: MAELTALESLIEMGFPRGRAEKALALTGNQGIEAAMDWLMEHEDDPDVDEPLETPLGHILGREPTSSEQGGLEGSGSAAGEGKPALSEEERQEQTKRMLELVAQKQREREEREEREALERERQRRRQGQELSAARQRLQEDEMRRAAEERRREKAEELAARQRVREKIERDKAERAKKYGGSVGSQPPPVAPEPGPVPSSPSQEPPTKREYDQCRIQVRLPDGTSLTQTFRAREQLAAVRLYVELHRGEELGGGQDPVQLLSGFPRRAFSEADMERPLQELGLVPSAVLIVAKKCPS
UniProt Q05655: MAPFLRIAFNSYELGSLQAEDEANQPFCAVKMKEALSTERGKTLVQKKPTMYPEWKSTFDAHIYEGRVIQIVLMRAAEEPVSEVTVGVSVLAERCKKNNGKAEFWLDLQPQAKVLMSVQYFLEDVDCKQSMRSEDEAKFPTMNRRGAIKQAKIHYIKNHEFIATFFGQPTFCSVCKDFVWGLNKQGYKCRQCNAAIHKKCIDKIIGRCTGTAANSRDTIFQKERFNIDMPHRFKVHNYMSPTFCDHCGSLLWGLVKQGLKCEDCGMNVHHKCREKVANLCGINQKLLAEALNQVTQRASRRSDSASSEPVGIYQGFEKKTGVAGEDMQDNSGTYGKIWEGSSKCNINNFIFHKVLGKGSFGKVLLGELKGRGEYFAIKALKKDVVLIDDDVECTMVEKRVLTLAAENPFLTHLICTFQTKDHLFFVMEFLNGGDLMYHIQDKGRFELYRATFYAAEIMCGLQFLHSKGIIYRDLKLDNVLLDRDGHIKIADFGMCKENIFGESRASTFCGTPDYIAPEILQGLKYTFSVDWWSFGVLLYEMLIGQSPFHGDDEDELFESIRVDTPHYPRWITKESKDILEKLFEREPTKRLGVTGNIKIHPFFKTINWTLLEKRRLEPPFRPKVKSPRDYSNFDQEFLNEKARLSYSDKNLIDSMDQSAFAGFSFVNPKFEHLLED
UniProt Q04759: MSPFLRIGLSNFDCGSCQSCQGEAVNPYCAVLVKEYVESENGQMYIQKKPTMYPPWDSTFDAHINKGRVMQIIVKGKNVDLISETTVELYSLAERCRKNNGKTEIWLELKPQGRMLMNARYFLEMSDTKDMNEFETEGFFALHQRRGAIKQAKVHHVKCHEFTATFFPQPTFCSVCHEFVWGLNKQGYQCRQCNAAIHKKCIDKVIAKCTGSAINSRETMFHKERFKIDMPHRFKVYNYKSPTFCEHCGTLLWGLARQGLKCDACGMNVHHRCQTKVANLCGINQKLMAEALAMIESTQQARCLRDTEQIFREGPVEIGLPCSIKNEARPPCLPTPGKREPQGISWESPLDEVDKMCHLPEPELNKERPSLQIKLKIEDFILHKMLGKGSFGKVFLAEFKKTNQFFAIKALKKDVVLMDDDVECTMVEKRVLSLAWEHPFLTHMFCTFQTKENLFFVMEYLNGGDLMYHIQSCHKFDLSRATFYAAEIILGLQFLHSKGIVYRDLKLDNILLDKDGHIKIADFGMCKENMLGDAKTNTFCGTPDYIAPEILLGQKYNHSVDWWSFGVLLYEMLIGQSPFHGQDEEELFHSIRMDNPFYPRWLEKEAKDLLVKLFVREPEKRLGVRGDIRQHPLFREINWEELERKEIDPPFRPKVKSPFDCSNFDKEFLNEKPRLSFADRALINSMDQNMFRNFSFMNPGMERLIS
UniProt Q0VG06: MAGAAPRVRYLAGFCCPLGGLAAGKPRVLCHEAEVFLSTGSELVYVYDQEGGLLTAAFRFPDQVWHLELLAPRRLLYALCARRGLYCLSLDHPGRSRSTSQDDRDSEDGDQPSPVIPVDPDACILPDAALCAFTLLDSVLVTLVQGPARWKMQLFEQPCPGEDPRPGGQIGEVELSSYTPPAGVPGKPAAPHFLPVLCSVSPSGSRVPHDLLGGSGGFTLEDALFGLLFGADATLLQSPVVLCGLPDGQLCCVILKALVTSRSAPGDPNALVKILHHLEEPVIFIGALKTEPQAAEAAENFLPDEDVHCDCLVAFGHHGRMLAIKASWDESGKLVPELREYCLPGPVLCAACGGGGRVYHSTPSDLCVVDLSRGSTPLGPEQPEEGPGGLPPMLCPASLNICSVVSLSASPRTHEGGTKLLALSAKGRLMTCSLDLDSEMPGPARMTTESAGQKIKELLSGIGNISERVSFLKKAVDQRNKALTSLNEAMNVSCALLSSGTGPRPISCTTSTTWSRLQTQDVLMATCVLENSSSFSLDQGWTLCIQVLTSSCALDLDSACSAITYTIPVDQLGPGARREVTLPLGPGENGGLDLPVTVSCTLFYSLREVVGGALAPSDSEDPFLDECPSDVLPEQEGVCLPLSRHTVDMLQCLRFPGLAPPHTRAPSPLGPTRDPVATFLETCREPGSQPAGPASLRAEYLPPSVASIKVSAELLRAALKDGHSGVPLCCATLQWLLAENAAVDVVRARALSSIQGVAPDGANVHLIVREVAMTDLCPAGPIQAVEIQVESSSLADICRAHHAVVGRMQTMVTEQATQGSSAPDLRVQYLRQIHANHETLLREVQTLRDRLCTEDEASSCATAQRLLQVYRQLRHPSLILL
UniProt Q04760: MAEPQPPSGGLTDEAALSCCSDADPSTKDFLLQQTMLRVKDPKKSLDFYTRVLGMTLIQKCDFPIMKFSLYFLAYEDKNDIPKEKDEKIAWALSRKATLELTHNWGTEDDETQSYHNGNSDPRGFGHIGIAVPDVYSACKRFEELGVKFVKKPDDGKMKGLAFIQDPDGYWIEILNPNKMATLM
UniProt Q08AM6: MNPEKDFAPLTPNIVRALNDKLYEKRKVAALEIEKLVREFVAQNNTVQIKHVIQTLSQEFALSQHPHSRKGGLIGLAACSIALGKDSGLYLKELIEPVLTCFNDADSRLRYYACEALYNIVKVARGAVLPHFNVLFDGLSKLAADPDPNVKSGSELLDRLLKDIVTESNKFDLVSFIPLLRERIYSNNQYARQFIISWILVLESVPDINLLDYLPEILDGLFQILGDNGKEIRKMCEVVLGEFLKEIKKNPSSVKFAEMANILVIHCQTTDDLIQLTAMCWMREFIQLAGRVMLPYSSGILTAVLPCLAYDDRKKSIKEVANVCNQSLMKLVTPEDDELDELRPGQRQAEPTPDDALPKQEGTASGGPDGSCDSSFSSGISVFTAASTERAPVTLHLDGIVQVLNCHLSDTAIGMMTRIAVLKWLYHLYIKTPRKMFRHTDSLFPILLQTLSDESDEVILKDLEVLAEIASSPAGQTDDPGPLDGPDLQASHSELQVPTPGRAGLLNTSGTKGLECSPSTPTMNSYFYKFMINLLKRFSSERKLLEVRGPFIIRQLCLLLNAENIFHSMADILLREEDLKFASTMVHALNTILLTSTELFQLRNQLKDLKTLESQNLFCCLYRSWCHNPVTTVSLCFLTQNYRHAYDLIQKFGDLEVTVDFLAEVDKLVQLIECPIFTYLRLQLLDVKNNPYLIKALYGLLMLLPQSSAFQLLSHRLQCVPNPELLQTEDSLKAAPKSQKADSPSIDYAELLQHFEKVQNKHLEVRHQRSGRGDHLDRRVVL
UniProt Q13426: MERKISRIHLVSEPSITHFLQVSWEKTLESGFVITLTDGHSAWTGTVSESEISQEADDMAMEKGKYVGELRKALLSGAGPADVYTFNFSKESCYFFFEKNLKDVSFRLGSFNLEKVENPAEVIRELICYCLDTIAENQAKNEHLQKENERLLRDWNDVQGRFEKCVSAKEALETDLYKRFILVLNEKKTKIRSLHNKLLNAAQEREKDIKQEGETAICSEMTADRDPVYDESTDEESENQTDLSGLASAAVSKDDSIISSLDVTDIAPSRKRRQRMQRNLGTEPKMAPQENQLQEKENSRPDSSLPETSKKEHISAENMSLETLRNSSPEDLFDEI
UniProt Q13185: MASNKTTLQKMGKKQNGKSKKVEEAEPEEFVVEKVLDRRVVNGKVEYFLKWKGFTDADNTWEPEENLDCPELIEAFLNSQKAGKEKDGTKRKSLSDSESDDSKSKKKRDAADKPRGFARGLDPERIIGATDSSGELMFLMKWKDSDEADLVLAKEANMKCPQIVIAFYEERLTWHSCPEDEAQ

± gives the standard deviation of the averaged measurements. This is a selection; strong and weak results do not stand in their true shares. Most entries show no effect beyond the scatter of the controls.

Compound in the first experiment: Nc1ncnc2c1ncn2[C@@H]1O[C@H](COP(=O)(O)OP(=O)(O)OP(=O)(O)O)[C@@H](O)[C@H]1O [adenosine triphosphate]
The experiment can be described thus: NP40-soluble protein abundance relative to vehicle (solubility fold change) (ratio); higher = more soluble protein in presence of ATP. The conditions noted are these: concentration: 0.1mM. The gist of the method: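 Crude Jurkat lysate, prepared by Dounce homogenisation, was exposed to eight concentrations from 0.1 to 10 mM for 10 min at room temperature and then 3 min at 37 °C. Solubilisation used 0.8% NP40 with benzonase for 60 min at 4 °C, followed by ultracentrifugation and TMT labelling of the supernatant for LC-MS/MS. After vsn normalisation of intensities, each value is the fold change against the detergent-processed vehicle within each replicate, across three independent experiments.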
Turning to OGDH (UniProt Q02218), the NP40-soluble protein abundance worked out at 1.058 ± 0.0099.
With UniProt Q13042 and related entries, the NP40-soluble protein abundance was found to be 1 ± 0.017.
For the target CEBPZ (UniProt Q03701), the NP40-soluble protein abundance was determined as 0.986 ± 0.046.
For the target “Q05GC8 and related entries (UniProt Q96PN7+Q05GC8)”, the NP40-soluble protein abundance came to 1.02 ± 0.029.
Still for that read-out and setting: the figure for UniProt Q13595 and related entries is 0.935 ± 0.051.
As to UniProt Q01831 and related entries, the NP40-soluble protein abundance came out at 1.03 ± 0.043.
Regarding UniProt Q12888 and related entries, the NP40-soluble protein abundance came out at 0.975 ± 0.011.
In the case of UniProt Q13838 and related entries, the NP40-soluble protein abundance is 1.05 ± 0.082.
As to UniProt Q01130 and related entries, the NP40-soluble protein abundance was determined as 1.04 ± 0.031.
Consider NUCB1 (UniProt Q02818), for which the NP40-soluble protein abundance stood at 0.982 ± 0.1.
For STX4 (UniProt Q12846), the NP40-soluble protein abundance was determined as 1.01 ± 0.024.
With UniProt Q04323 and related entries, the NP40-soluble protein abundance amounted to 0.962 ± 0.045.
For SLFN5 (UniProt Q08AF3), the NP40-soluble protein abundance is 1.1 ± 0.018.
As for UniProt Q05655, the NP40-soluble protein abundance was determined as 1.07 ± 0.061.
Turning to PRKCQ (UniProt Q04759), the NP40-soluble protein abundance is 1.08 ± 0.099.
As for TRIM26 (UniProt Q12899), the NP40-soluble protein abundance turned out to be 0.969 ± 0.14.
As to UniProt Q13330 and related entries, the NP40-soluble protein abundance was determined as 1.02 ± 0.057.
With PDCL (UniProt Q13371), the NP40-soluble protein abundance was determined as 1.02 ± 0.057.
On to UniProt Q0VG06 and related entries, for which the NP40-soluble protein abundance came out at 1.041 ± 0.0099.
As to MGAT2 (UniProt Q10469), the NP40-soluble protein abundance turned out to be 1.05 ± 0.015.
The same measure, in the same setting: with UniProt Q02338 and related entries the figure was 1.04 ± 0.072.
Take UniProt Q13561 and related entries: the NP40-soluble protein abundance amounted to 0.97 ± 0.089.
The same measure, in the same setting: the figure for UniProt Q01518 and related entries is 0.949 ± 0.038; for UniProt Q06330 and related entries it is 1.02 ± 0.034; for REST (UniProt Q13127) it is 0.992 ± 0.042.
Still for that read-out and setting: with TWF1 (UniProt Q12792) the figure was 0.989 ± 0.1; with UniProt Q13310 and related entries, 1.02 ± 0.015.
Turning to ARHGAP1 (UniProt Q07960), the NP40-soluble protein abundance stood at 1.04 ± 0.074.
Still for that read-out and setting: with CHAF1B (UniProt Q13112) the figure was 1.01 ± 0.027.
For UniProt Q04760 and related entries, the NP40-soluble protein abundance is 0.877 ± 0.084.
Take MKRN3 (UniProt Q13064): the NP40-soluble protein abundance came to 1.05 ± 0.029.
The same measure, in the same setting: the figure for “UniProt Q04726-3|Q04726-7|H0YKT5 and related entries” is 1.02 ± 0.038.
On to VAC14 (UniProt Q08AM6), for which the NP40-soluble protein abundance came to 1.02 ± 0.031.
With FKBP4 (UniProt Q02790), the NP40-soluble protein abundance turned out to be 1.02 ± 0.05.
The same measure, in the same setting: with SCRN1 (UniProt Q12765) the figure was 1.05 ± 0.097.
As for XRCC4 (UniProt Q13426), the NP40-soluble protein abundance came to 0.992 ± 0.051.
Still for that read-out and setting: with UniProt Q01968 and related entries the figure was 1.02 ± 0.084.
Still for that read-out and setting: with CBX3 (UniProt Q13185) the figure was 0.909 ± 0.013.

Staying with this experiment, now noted: concentration: 0.5mM.
Take OGDH (UniProt Q02218): the NP40-soluble protein abundance came out at 1.1 ± 0.054.
Regarding UniProt Q13042 and related entries, the NP40-soluble protein abundance was 1.04 ± 0.034.
The same measure, in the same setting: with CEBPZ (UniProt Q03701) the figure was 0.983 ± 0.029.
For “Q05GC8 and related entries (UniProt Q96PN7+Q05GC8)”, the NP40-soluble protein abundance worked out at 1.06 ± 0.067.
On the same count and under the same terms, the figure for UniProt Q13595 and related entries is 1.19 ± 0.14; for UniProt Q01831 and related entries it is 1.01 ± 0.041; for UniProt Q12888 and related entries it is 0.967 ± 0.041.
Regarding UniProt Q13838 and related entries, the NP40-soluble protein abundance was determined as 0.971 ± 0.073.
With UniProt Q01130 and related entries, the NP40-soluble protein abundance amounted to 1.22 ± 0.057.
NUCB1 (UniProt Q02818): the NP40-soluble protein abundance came to 0.996 ± 0.062.
Take STX4 (UniProt Q12846): the NP40-soluble protein abundance was found to be 1.02 ± 0.041.
As to UniProt Q04323 and related entries, the NP40-soluble protein abundance was 0.921 ± 0.12.
As for SLFN5 (UniProt Q08AF3), the NP40-soluble protein abundance came out at 1.2 ± 0.031.
Consider UniProt Q05655, for which the NP40-soluble protein abundance came out at 1.04 ± 0.073.
Regarding PRKCQ (UniProt Q04759), the NP40-soluble protein abundance was 1.09 ± 0.093.
The same measure, in the same setting: the figure for TRIM26 (UniProt Q12899) is 0.901 ± 0.048.
The same measure, in the same setting: with UniProt Q13330 and related entries the figure was 1.06 ± 0.024; with PDCL (UniProt Q13371), 0.975 ± 0.047; with UniProt Q0VG06 and related entries, 1.03 ± 0.065.
Turning to MGAT2 (UniProt Q10469), the NP40-soluble protein abundance was 0.995 ± 0.045.
Same read-out and setting: the figure for UniProt Q02338 and related entries is 1.06 ± 0.075.
Turning to UniProt Q13561 and related entries, the NP40-soluble protein abundance stood at 0.915 ± 0.034.
As for UniProt Q01518 and related entries, the NP40-soluble protein abundance is 0.978 ± 0.051.
Consider UniProt Q06330 and related entries, for which the NP40-soluble protein abundance came to 1 ± 0.075.
As for REST (UniProt Q13127), the NP40-soluble protein abundance was found to be 1.05 ± 0.033.
Take TWF1 (UniProt Q12792): the NP40-soluble protein abundance worked out at 1.04 ± 0.037.
As to UniProt Q13310 and related entries, the NP40-soluble protein abundance is 1.01 ± 0.081.
On to ARHGAP1 (UniProt Q07960), for which the NP40-soluble protein abundance stood at 1.01 ± 0.057.
Turning to CHAF1B (UniProt Q13112), the NP40-soluble protein abundance turned out to be 1.03 ± 0.05.
As to UniProt Q04760 and related entries, the NP40-soluble protein abundance amounted to 0.828 ± 0.13.
On to MKRN3 (UniProt Q13064), for which the NP40-soluble protein abundance came out at 0.986 ± 0.054.
With “UniProt Q04726-3|Q04726-7|H0YKT5 and related entries”, the NP40-soluble protein abundance was 1.01 ± 0.073.
As for VAC14 (UniProt Q08AM6), the NP40-soluble protein abundance is 1.04 ± 0.02.
As for FKBP4 (UniProt Q02790), the NP40-soluble protein abundance was 1.03 ± 0.042.
On the same count and under the same terms, with SCRN1 (UniProt Q12765) the figure was 1.06 ± 0.12.
Same read-out and setting: with XRCC4 (UniProt Q13426) the figure was 1.05 ± 0.047.
For the target UniProt Q01968 and related entries, the NP40-soluble protein abundance was found to be 1.01 ± 0.014.
CBX3 (UniProt Q13185): the NP40-soluble protein abundance turned out to be 0.939 ± 0.052.
